Test results from US20090011400A1, “Substrate switched ammonia lyases and mutases” (The Salk Institute for Biological Studies and The Regents …, priority 2006, published 2009).
The name of at least one read-out is uncertain.

Assay: PAL activity: spectrophotometric steady-state kinetics, L-Phe to cinnamate
Assay type: biochemical
Details: substrate L-Phe
Procedure: TAL activity was measured spectrophotometrically by monitoring the formation of a conjugated aryl-acid product. The conversion of L-Tyr to p-coumarate was followed at 310 nm and L-Phe to cinnamate at 280 nm. The assay mixture (total volume 0.5 ml) contained 0.1 M Tris HCl (pH 8.5), and for each fixed amount of TAL, eight different initial concentrations of amino acid substrate. After pre-incubation of the enzyme at 37° C. for 2 min, reactions were initiated by the addition of substrate, and formation of product was monitored for 5 min. For wild type RsTAL, activity was assayed with 7.5 μg protein and initial L-Tyr concentrations between 0.01 and 2.4 mM, and PAL activity was assayed with 30 μg protein and initial L-Phe concentrations between 3.2 and 51.2 mM. For the RsTAL H89F mutant, PAL activity was assayed with 10 μg protein and initial L-Phe concentrations between 0.05 and 5.2 mM. Each series of assays were performed in triplicate, and a Hanes plot was used for the estimation of steady-state kinetic constants.

B1: H89F RsTAL: engineered RsTAL variant with the single amino acid substitution H89F (His 89 replaced by Phe) (protein)
chain: MLAMSPPKPAVELDRHIDLDQAHAVASGGARIVLAPPARDRCRASEARLGAVIREARHVYGLTTGFGPLANRLISGENVRTLQANLVHFLASGVGPVLDWTTARAMVLARLVSIAQGASGASEGTIARLIDLLNSELAPAVPSRGTVGASGDLTPLAHMVLCLQGRGDFLDRDGTRLDGAEGLRRGRLQPLDLSHRDALALVNGTSAMTGIALVNAHACRHLGNWAVALTALLAECLRGRTEAWAAALSDLRPHPGQKDAAARLRARVDGSARVVRHVIAERRLDAGDIGTEPEAGQDAYSLRCAPQVLGAGFDTLAWHDRVLTIELNAVTDNPVFPPDGSVPALHGGNFMGQHVALTSDALATAVTVLAGLAERQIARLTDERLNRGLPPFLHRGPAGLNSGFMGAQVTATALLAEMRATGPASIHSISTNAANQDVVSLGTIAARLCREKIDRWAEILAILALCLAQAAELRCGSGLDGVSPAGKKLVQALREQFPPLETDRPLGQEIAALATHLLQQSPV
modifications: H89F mutant of Rhodobacter sphaeroides tyrosine ammonia lyase
B1 gave a kcat/Km of 19000 M⁻¹ s⁻¹.
